The campaign covered roughly 320,000 compounds. About 2,100 (0.66%) were called active. The shares of active, inactive and inconclusive entries below differ from those in the screen. The call rests on the fitted dose curve; in most records, active means well fitted inhibition curve with a large enough effect in the signal ratio, with a control signal flat (not every such curve was filed as active); inconclusive means small, poorly fitted or top-dose-only effect, or effect the other way, or a change in a side signal; inactive means flat fitted curve, though single readings scatter; the % refers to the signal ratio. Potencies of inconclusive entries are doubtful fits and often do not repeat.
Test: qHTS Assay for Lipid Storage Modulators in Drosophila S3 Cells
Settings: BODIPY lipid droplet fluorescence, 18-24 h, cells fed with added oleic acid; lipid storage change, negative = inhibition: at 46.1 µM (top of the series) unless noted
Method in brief: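 Drosophila S3 cells got compounds at several concentrations plus oleic acid (400 uM solution). Laser-scanning cytometry with 488 nm excitation read lipid droplets at 500-530 nm and cells at 575-640 nm. Percent activity was relative to 20 uM Triacsin C.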
On the % scale 0 is the no-effect control and ±100 the full control effect; potency means the concentration at half of the fitted maximal effect.

Row | Compound | lipid storage change, negative = inhibition | Potency
1 | COc1cccc(N2CC(C)Cn3c2nc2c3c(=O)n(CCN3CCOCC3)c(=O)n2C)c1 (centres undefined) | inconclusive: 21.7% | 
2 | O=c1oc2ccc(C#CC3(O)CCCCC3)cc2cc1-n1cc(C2(O)CCCCC2)nn1 | inconclusive: 27% | 
3 | COc1ccccc1N1CCN(C(=O)CNS(=O)(=O)c2ccc(Br)s2)CC1 |  | inconclusive: 29.1 µM [activator, single point]
4 | COC(F)(C(=O)Nc1ccc2c(c1)C(=O)NC2=O)C(F)(F)F (centres undefined) | inconclusive: -25.7% | 
5 | CN(CC(=O)Nc1ccccc1N1CCOCC1)CC(=O)Nc1ccc(F)c(F)c1F | inconclusive: 11% | 
6 | Clc1ccccc1CSC1=NCCN1 | inconclusive: -21.2% | 
7 | CCc1ccccc1NC(=O)c1onc(C)c1Cl | inconclusive: 13.4% [at 9.22 µM] | 
8 | O=C(CCCc1nc(-c2ccccc2)no1)NC1CCCCC1 | inconclusive: 17.6% | 
9 | COC(=O)c1cc(=O)n(CCc2ccccc2F)c(=Nc2ccc(F)c(Cl)c2)s1 |  | inconclusive: 8.2 µM [activator, partial curve]
10 | Cc1cc(C)c2cc(C#N)c(SCC(=O)NCc3ccco3)nc2c1 |  | inconclusive: 1.84 µM [activator, partial curve]
11 | O=C1Nc2ccccc2C(=O)N2[C@H](c3ccccc3)[C@@H]3C(=O)N(Cc4ccccc4)C(=O)[C@@H]3[C@H]12 | inconclusive: -4.21% | 
12 | NS(=O)(=O)c1ccc(CNC(=O)c2cc(-c3cccnc3)nc3ccccc23)cc1 |  | inconclusive: 16.4 µM [activator, partial curve]
13 | COC(=O)Nc1nnc(/C=C/c2ccccc2)s1 |  | inconclusive: 14.6 µM [activator, partial curve, poor fit]
14 | COc1ccc(NC(=S)NNC(=O)c2ccc(S(=O)(=O)N3CCOCC3)cc2)cc1 |  | inconclusive: 1.16 µM [falling, single point]
15 | COc1ccc(Cl)cc1S(=O)(=O)NCc1ccncc1 | inconclusive: 16.2% | 
16 | CCc1cc(=O)oc2cc(OCC(=O)NCCCN3CCCC3=O)ccc12 | inactive | 
17 | O=C(N/N=C/c1cccs1)c1[nH]ncc1Br | inconclusive: 15.1% | 
18 | CCn1ncc(S(=O)(=O)Nc2cccnc2)c1C | inconclusive: 0.15% | 
19 | N=C(N)CCCOc1ccccc1-c1ccccc1 | inconclusive: -15% | 
20 | Cc1ccc(Nc2nc(Nc3ccc(C)cc3)nc(SC3=NCCS3)n2)cc1 |  | inconclusive: 0.58 µM [activator, single point]
21 | Cc1ccc(CN2CCN(C(=O)CCc3ccccc3)CC2)cc1 | inconclusive: -63.9% | 
22 | O=C(CSc1nnc(-c2ccccc2O)o1)Oc1ccc(Br)cc1 |  | inconclusive: 29.1 µM [cytotoxic, single point]
23 | COC(=O)c1ccc(NC(=S)Nc2ccc3ccccc3c2)cc1 |  | inconclusive: 20.6 µM [activator, single point]
24 | CCc1ccc(NC(=O)CC2S/C(=N/N=C3CCCCCC3)NC2=O)cc1 (centres undefined) |  | inconclusive: 29.1 µM [activator, single point]
25 | OCCSc1ncnc2c1oc1ccccc12 | inconclusive: 30.2% | 
26 | CS(=O)(=O)N(Cc1ccccc1)c1ccc(C(=O)N2CCc3ccccc3C2)cc1 | inactive | 
27 | CCC(C)C1Nc2ccc(C(=O)NCCc3ccc(OC)c(OC)c3)cc2NC1=O (centres undefined) |  | inconclusive: 20.6 µM [falling, single point]

Row | Compound | lipid storage change, negative = inhibition | Potency
28 | COc1ccccc1-c1noc(CSc2nc(C)cc(=O)[nH]2)n1 | inconclusive: 7.95% | 
29 | COc1cc(C(=O)NCc2ccccc2)cc(Br)c1OC |  | inconclusive: 8.2 µM [activator, partial curve]
30 | Cc1cccc(OCC(=O)OC(C)C(=O)Nc2ccc(S(=O)(=O)N3CCCCC3)cc2)c1 (centres undefined) | inconclusive: 10.1% | 
31 | CCCCOC(=O)C1C2C=C[C@]3(CN(CCCOC)C(=O)[C@H]13)O2 (some centres undefined) | inconclusive: -35.1% | 
32 | CCN1CCN(C(=O)CCc2nnc3ccc(N4CCN(c5cccc(OC)c5)CC4)nn23)CC1 |  | inconclusive: 0.0046 µM [falling, full curve, poor fit]
33 | COc1ccc2cc3cc(C(=O)N4CCN(C5CCCCC5)CC4)oc3nc2c1 | inconclusive: 38.2% | 
34 | COCn1c(-c2cccc(Br)c2)nc2ccccc21 |  | inconclusive: 2.91 µM [activator, partial curve]
35 | N#CC1=C(N)Oc2cc(N)ccc2C1c1ccccc1Cl (centres undefined) | inconclusive: 30.5% | 
36 | Cc1nnc(SCC(=O)NC2CCCCCC2)n1N | inconclusive: 13.7% | 
37 | COc1cccc(N2CCN(CC(=O)NC3=Nc4ccccc4N=C(C)C3c3ccccc3)CC2)c1 (centres undefined) | inconclusive: -2.71% | 
38 | Cc1cc(C(=O)NCC(=O)OCC(=O)N(C2CCCCC2)C2CCCCC2)ccc1[N+](=O)[O-] | inconclusive: -1.22% | 
39 | CCN(CC)c1ccc(/C=N/NC(=O)CNC(=O)/C=C/c2ccco2)cc1 | inconclusive: 84.5% | 
40 | COc1cc(NC(=O)CSc2ncnc3sc4c(c23)CCC(C)C4)c(C(=O)O)cc1OC (centres undefined) |  | inconclusive: 0.651 µM [falling, single point]
41 | CN(C)C(=O)CSc1nnc(-c2ccc(F)cc2)c2ccccc12 | inconclusive: 9.08% | 
42 | COCCSc1nnc(NC(=O)C2CC(=O)N(c3ccc(C)cc3)C2)s1 (centres undefined) | inconclusive: -40.2% | 
43 | c1ccc(Oc2cccc(OCCCn3cncn3)c2)cc1 |  | inconclusive: 16.4 µM [activator, single point]
44 | NS(=O)(=O)c1ccc(CCNc2nc(CN3CCOCC3)nc3sc4c(c23)CCC4)cc1 | inconclusive: 31.7% | 
45 | CCOc1ccc2c(CC)cc(=O)oc2c1OCC | inconclusive: 19.7% | 
46 | O=C(/C=C/c1ccc(F)cc1)NCCNC(=O)/C=C/c1ccc(F)cc1 |  | inconclusive: 0.082 µM [falling, full curve, poor fit]
47 | COc1ccc(Cl)cc1NC(=S)NCc1ccco1 | inconclusive: 13.3% | 
48 | CCN1CCN(S(=O)(=O)c2ccc(Cl)c(C(=O)NC(C)c3ccccc3Cl)c2)CC1 (centres undefined) | inconclusive | 
49 | O=C(N/N=C/c1ccc(OC(=O)c2cccs2)cc1)c1ccccn1 | inconclusive: 171% | 
50 | CCC1Sc2ccc(S(=O)(=O)CCC(=O)NCc3ccco3)cc2NC1=O (centres undefined) | inconclusive: 70.8% | 
51 | Cc1cc(N2CCN(C)CC2)nc(=S)[nH]1 | inconclusive: -7.52% | 
52 | CCOc1ccccc1C(=O)NCC(=O)OCC(=O)c1ccc2c(c1)OCCO2 | inconclusive: 13.6% | 
53 | Cc1cc(C)n(Cc2ccc(Cl)c(Cl)c2)c(=O)c1S(=O)(=O)c1ccccc1 | inconclusive: 4.96% | 
54 | Cn1c(=O)oc2cc(S(=O)(=O)Nc3ccc(Cl)cc3)ccc21 | inconclusive: -19.5% | 

In the list so far, two have a cyano group.
Row | Compound | lipid storage change, negative = inhibition | Potency
10 | Cc1cc(C)c2cc(C#N)c(SCC(=O)NCc3ccco3)nc2c1 |  | inconclusive: 1.84 µM [activator, partial curve]
35 | N#CC1=C(N)Oc2cc(N)ccc2C1c1ccccc1Cl (centres undefined) | inconclusive: 30.5% | 

More results:

Row | Compound | lipid storage change, negative = inhibition | Potency
55 | CSCCC(CO)NC(=O)OCc1ccccc1 (centres undefined) | inconclusive: -70% | 
56 | Cc1cccc(C(=O)N=C2SC3CS(=O)(=O)CC3N2c2ccccc2)c1 (centres undefined) | inconclusive: 24.8% | 
57 | Cc1ccc(Nc2c(-c3ccc(C)o3)nc3cnccn23)cc1 | inconclusive: 7.28% | 
58 | CC(Oc1cccc(Cl)c1)C(=O)N1CCN(c2ncccn2)CC1 (centres undefined) | inconclusive: -10.7% | 
59 | O=[N+]([O-])c1cccc(OCCN2CCC(Cc3ccccc3)CC2)c1 | inactive | 
60 | CCCOc1cccc(C(=O)O)c1 |  | inconclusive: 0.259 µM [falling, full curve, poor fit]
61 | CN(CC(=O)Nc1ccccc1Sc1ccccc1)C1CCCCC1 | inconclusive: -7.61% | 
62 | CC1(C)CC(=O)C(C(=O)/C=C/c2ccco2)C(=O)C1 | inconclusive: -27.6% | 
63 | CCn1c(SCC(=O)OCc2ccccc2)nnc1-c1ccco1 | inconclusive: 32.5% | 
64 | CCCOc1ccc(CNC(=O)C2CCN(C(=O)N3CCOc4ccccc43)CC2)cc1 | inconclusive: 16.1% | 
65 | CC1(C)Cc2ccccc2C(=NCCCC(=O)O)N1 | inconclusive: -89.1% | 
66 | COC(=O)C1=C(C)N(Cc2ccccc2)C(=NCc2ccc(OC)cc2)N[C@H]1c1ccccc1 |  | inconclusive: 0.0092 µM [falling, full curve, poor fit]
67 | O=C(CSCc1cnn(-c2ccccc2)c1-n1cccc1)N1CCN(Cc2ccccc2)CC1 | inconclusive: 2.36% | 
68 | Nc1nc(NCc2ccccc2)n(-c2ccccc2)n1 | inconclusive: 15.6% | 
69 | Cn1cccc1C(=O)NC(=O)COC(=O)CNC(=O)CNC(=O)c1ccc(Cl)cc1Cl | inconclusive: -11.3% | 
70 | COc1cc(C(=O)Nc2ccc(Cl)c([N+](=O)[O-])c2)cc(OC)c1OC | inconclusive: -14.8% | 
71 | COc1ccc(CCN2CCCn3c2nc2c3c(=O)n(CC(N)=O)c(=O)n2C)cc1OC | inconclusive: -9.54% | 
72 | COc1ccc(NC(=S)NC(=O)/C=C/c2ccccc2)cc1 | inconclusive: -19.7% | 
73 | CN(C)CC(O)CN1C(=O)N(CN2C(=O)N(CC(O)CN(C)C)C(=O)C2(C)C)C(C)(C)C1=O (centres undefined) | inconclusive: 9.87% | 
74 | Cc1cc(C)nc(NC(=O)CN2C(=O)c3ccccc3C2=O)n1 | inconclusive: -1% | 
75 | CCOc1ccc(CCNC(=O)c2nnn(CC(=O)Nc3ccc(C)cc3)c2N)cc1OCC | inconclusive: 7.65% | 
76 | COCCn1c(=O)[nH]c2cc(C(=O)N3CCN(c4cccc(C)c4C)CC3)ccc2c1=O |  | inconclusive: 5.8 µM [falling, full curve, poor fit]
77 | CS(=O)(=O)c1ccc(-c2cn3cc(C(=O)O)ccc3n2)cc1 | inconclusive: 18.4% | 
78 | CC(=O)c1ccc(N2CCN(CC3CCCCC3)CC2)cc1 | inconclusive: -2.3% | 
79 | CC(Cc1n[nH]c(=S)o1)c1ccccc1 (centres undefined) | inconclusive: 5.39% | 

A different layout for 20 compounds above.
Row	Compound	lipid storage change, negative = inhibition	Potency
59	O=[N+]([O-])c1cccc(OCCN2CCC(Cc3ccccc3)CC2)c1	inactive	
60	CCCOc1cccc(C(=O)O)c1		inconclusive: 0.259 µM [falling, full curve, poor fit]
61	CN(CC(=O)Nc1ccccc1Sc1ccccc1)C1CCCCC1	inconclusive: -7.61%	
62	CC1(C)CC(=O)C(C(=O)/C=C/c2ccco2)C(=O)C1	inconclusive: -27.6%	
63	CCn1c(SCC(=O)OCc2ccccc2)nnc1-c1ccco1	inconclusive: 32.5%	
64	CCCOc1ccc(CNC(=O)C2CCN(C(=O)N3CCOc4ccccc43)CC2)cc1	inconclusive: 16.1%	
65	CC1(C)Cc2ccccc2C(=NCCCC(=O)O)N1	inconclusive: -89.1%	
66	COC(=O)C1=C(C)N(Cc2ccccc2)C(=NCc2ccc(OC)cc2)N[C@H]1c1ccccc1		inconclusive: 0.0092 µM [falling, full curve, poor fit]
67	O=C(CSCc1cnn(-c2ccccc2)c1-n1cccc1)N1CCN(Cc2ccccc2)CC1	inconclusive: 2.36%	
68	Nc1nc(NCc2ccccc2)n(-c2ccccc2)n1	inconclusive: 15.6%	
69	Cn1cccc1C(=O)NC(=O)COC(=O)CNC(=O)CNC(=O)c1ccc(Cl)cc1Cl	inconclusive: -11.3%	
70	COc1cc(C(=O)Nc2ccc(Cl)c([N+](=O)[O-])c2)cc(OC)c1OC	inconclusive: -14.8%	
71	COc1ccc(CCN2CCCn3c2nc2c3c(=O)n(CC(N)=O)c(=O)n2C)cc1OC	inconclusive: -9.54%	
72	COc1ccc(NC(=S)NC(=O)/C=C/c2ccccc2)cc1	inconclusive: -19.7%	
73	CN(C)CC(O)CN1C(=O)N(CN2C(=O)N(CC(O)CN(C)C)C(=O)C2(C)C)C(C)(C)C1=O (centres undefined)	inconclusive: 9.87%	
74	Cc1cc(C)nc(NC(=O)CN2C(=O)c3ccccc3C2=O)n1	inconclusive: -1%	
75	CCOc1ccc(CCNC(=O)c2nnn(CC(=O)Nc3ccc(C)cc3)c2N)cc1OCC	inconclusive: 7.65%	
76	COCCn1c(=O)[nH]c2cc(C(=O)N3CCN(c4cccc(C)c4C)CC3)ccc2c1=O		inconclusive: 5.8 µM [falling, full curve, poor fit]
77	CS(=O)(=O)c1ccc(-c2cn3cc(C(=O)O)ccc3n2)cc1	inconclusive: 18.4%	
78	CC(=O)c1ccc(N2CCN(CC3CCCCC3)CC2)cc1	inconclusive: -2.3%	

Source: PubChem BioAssay AID2685 (National Center for Advancing Translational Sciences (NCATS), 2010)
